Test results reported in patent US12728109B2, “Method of increasing the population of Dialister spp. in the gut microbiome” (DSM IP ASSETS B.V., priority 2020, dated 2026).
For at least one compound, name, drawing or mass did not settle the structure.

Test system: Dialister
Experiment: In vitro fermentation study 1: intestinal batch fermentation with fecal suspension, shotgun metagenome sequencing
Format: cell-based, Dialister spp.
Details: fermentation supernatant at 24 hours; all tested concentrations (0.2x, 1x, 5x); FIG. 1A
Description: At the start of this intestinal batch fermentation incubation, all test ingredients were added from stock solutions to the modified nutritional medium, containing (g/l): 2.5 K2HPO4, 10.9 KH2PO4, 2 NaHCO3, 2 yeast extract, 2 peptone, 1 mucin, 0.5 cysteine, 2 Tween 80, 2 glucose, 2 starch, 2 cellobiose, 0.1 NaCl, 0.01 MgSO4·7H2O, 0.01 CaCl2·6H2O, 0.05 hemin, 0.5 bile salts.
The following compounds were added from stock solutions prepared in water for vitamin B2 and B9, and in ethanol for vitamin K1, DHA and EPA:
Each compound was tested in three different concentrations. As a source of the microbial community, freshly prepared fecal suspension from a donor was added to the reactors. […]
Microbial composition: Total DNA was extracted from all fermentation samples collected throughout the study using the QIAamp DNA stool minikit (Qiagen, Crawley, United Kingdom) according to the manufacturer's instructions, apart from addition of a bead-beating step and increasing the lysis temperature to 95° C. as described previously. After DNA isolation, DNA was quantified using the Qubit High Sensitivity DNA assay (Thermo Fisher). […] Delivered raw FASTQ sequence files were quality checked as follows: poor quality and duplicate read removal, as well as trimming was implemented using a combination of SAM and Picard tools. Taxonomy was assigned to the reads using the Metaphlan2 software.

| Structure (SMILES) | Dialister relative abundances compared to control |
| --- | --- |
| CC/C=C\C/C=C\C/C=C\C/C=C\C/C=C\C/C=C\CCC(=O)O [DHA, docosahexaenoic acid] | substantial increase |
| CC/C=C\C/C=C\C/C=C\C/C=C\C/C=C\CCCC(=O)O [EPA, eicosapentaenoic acid] | substantial increase |
